Experimental data reported in doi:10.1101/2024.04.22.590536 (bioRxiv, 2024).
Results are given in words; binding and its absence hold for the method and conditions named. Some entries that bind do so weakly or less than the wild type. Sequences can lack the tags named with a protein.

Sequences of proteins named here, by UniProt entry; tags and fusion partners are left off.
UniProt P25586: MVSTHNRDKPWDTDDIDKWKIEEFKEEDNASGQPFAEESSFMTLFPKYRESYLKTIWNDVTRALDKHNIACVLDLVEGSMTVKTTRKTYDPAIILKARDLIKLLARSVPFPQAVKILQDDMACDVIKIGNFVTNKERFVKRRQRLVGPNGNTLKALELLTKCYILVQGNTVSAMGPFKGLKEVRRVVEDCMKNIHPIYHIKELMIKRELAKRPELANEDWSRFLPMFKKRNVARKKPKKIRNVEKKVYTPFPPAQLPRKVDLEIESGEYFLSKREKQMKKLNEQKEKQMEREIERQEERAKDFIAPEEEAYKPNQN

Assays:
Test in all cases: two-hybrid
[1] = target: T1, Noc4 fused to the GAL4 DNA binding domain (S. cerevisiae) (UniProt Q06512)
T1 sequence: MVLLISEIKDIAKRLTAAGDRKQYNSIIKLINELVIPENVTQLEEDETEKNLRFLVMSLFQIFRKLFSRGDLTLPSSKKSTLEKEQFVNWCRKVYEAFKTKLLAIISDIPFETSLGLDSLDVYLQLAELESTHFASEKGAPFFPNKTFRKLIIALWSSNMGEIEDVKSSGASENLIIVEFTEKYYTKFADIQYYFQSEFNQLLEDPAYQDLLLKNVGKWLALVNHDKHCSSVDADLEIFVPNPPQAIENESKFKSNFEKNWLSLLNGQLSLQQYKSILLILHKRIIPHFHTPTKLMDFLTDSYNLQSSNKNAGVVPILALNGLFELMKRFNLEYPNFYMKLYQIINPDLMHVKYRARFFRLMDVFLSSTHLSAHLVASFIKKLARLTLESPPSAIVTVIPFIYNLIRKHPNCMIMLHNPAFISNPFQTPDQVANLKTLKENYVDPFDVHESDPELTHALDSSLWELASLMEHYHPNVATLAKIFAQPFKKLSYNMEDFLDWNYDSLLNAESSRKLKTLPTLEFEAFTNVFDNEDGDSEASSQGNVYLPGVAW

[2] = target: Krr1 fused to the GAL4 DNA binding domain (S. cerevisiae) (UniProt P25586)
[3] = target: T2, Ckb2 fused to the GAL4 DNA binding domain (S. cerevisiae) (UniProt P38930)
T2 sequence: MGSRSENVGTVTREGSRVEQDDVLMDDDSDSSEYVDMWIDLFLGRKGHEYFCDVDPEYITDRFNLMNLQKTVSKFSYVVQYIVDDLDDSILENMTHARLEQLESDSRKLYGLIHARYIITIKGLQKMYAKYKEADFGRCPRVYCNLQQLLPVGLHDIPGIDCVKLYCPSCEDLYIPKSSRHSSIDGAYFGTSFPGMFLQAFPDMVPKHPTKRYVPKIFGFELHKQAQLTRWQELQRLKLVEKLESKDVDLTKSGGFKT

[4] = target: T3, ifh1-2 fused to the GAL4 DNA binding domain (S. cerevisiae) (UniProt P39520)
T3 sequence: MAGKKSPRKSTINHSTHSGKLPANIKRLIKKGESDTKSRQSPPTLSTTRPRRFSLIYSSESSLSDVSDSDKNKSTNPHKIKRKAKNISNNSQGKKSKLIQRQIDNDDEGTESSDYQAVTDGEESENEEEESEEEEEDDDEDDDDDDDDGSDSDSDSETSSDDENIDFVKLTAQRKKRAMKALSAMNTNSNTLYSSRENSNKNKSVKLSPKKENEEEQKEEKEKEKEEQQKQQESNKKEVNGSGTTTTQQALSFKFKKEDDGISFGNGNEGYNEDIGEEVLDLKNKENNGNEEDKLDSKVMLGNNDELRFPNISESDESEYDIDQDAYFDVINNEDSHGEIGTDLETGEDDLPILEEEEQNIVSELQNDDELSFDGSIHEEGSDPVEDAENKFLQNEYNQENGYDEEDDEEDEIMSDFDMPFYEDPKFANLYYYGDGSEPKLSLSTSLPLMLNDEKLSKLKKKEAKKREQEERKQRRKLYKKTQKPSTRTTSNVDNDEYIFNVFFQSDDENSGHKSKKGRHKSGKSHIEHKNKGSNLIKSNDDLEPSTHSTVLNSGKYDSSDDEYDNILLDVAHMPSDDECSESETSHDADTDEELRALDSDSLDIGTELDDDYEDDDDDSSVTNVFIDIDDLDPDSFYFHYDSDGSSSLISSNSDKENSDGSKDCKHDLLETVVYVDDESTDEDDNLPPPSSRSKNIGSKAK

binding [1]: binds
binding [2]: binds
binding [3]: binds
binding [4]: no binding
B1: Stm1 fused to the GAL4 activation domain (protein, UniProt P39015 1-273)
chain: MSNPFDLLGNDVEDADVVVLPPKEIVKSNTSSKKADVPPPSADPSKARKNRPRPSGNEGAIRDKTAGRRNNRSKDVTDSATTKKSNTRRATDRHSRTGKTDTKKKVNQGWGDDKKELSAEKEAQADAAAEIAEDAAEAEDAGKPKTAQLSLQDYLNQQANNQFNKVPEAKKVELDAERIETAEKEAYVPATKVKNVKSKQLKTKEYLEFDATFVESNTRKNFGDRNNNSRNNFNNRRGGRGARKGNNTANATNSANTVQKNRNIDVSNLPSLA
